Measured values published in doi:10.1101/2021.06.21.449233.
Results are given in words; binding and its absence hold for the method and conditions named. Binding seen in cells or lysates may run through a third protein. Some entries that bind do so weakly or less than the wild type.

Sequences of proteins named here, by UniProt entry; tags and fusion partners are left off. A change or cut given only in a name is not applied to a line headed by its entry.
UniProt P32245: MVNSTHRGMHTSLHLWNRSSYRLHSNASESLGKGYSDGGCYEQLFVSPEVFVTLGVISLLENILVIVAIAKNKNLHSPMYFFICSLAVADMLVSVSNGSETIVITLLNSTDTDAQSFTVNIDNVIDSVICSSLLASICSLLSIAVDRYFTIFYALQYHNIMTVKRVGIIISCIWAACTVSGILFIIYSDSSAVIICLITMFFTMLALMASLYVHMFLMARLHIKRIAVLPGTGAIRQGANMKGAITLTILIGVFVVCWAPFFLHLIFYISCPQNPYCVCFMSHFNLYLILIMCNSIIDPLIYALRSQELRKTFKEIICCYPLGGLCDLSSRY

Columns and labels:
MC4R-Rluc8 (human) = MC4R-Rluc8 (human) (UniProt P32245); test: FRET or BRET
MC4R-Rluc8 T150A (human) = MC4R-Rluc8 T150A (human) (UniProt P32245); test: FRET or BRET

## β-arrestin 2-Venus (from UniProt P32121 1-409)
MC4R-Rluc8 (human)
  binding: binds
MC4R-Rluc8 T150A (human)
  binding: binds
